Laboratory results: the supplement of paper PMC4604168 (melanoma cell lines)
Some of the results follow. Many values rest on one well or one pass, so single values are uncertain.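 The apoptosis fraction was the count of cleaved-PARP antibody-stained nuclei relative to all DNA-stained nuclei, imaged in 1,536-well plates. Screening doses were set so most cells survived, and baseline and induced cleaved-PARP levels vary greatly across cell lines.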

Columns and labels:
Experiment in all cases: cleaved PARP positive nuclei fraction relative to DMSO control; melanoma cells; higher = more apoptosis
Conditions in all cases: library dose: low library concentration; 72 h
501Mel = test system: 501Mel
A101D = test system: A101D
A2058 = test system: A2058
A375 = test system: A375
C32 = test system: C32
CBRC008 = test system: CBRC008 (line from a melanoma biopsy)
CBRC014 = test system: CBRC014 (line from a melanoma biopsy)
CBRC016 = test system: CBRC016 (line from a melanoma biopsy)
CBRC017 = test system: CBRC017 (line from a melanoma biopsy)
CBRC034 = test system: CBRC034 (line from a melanoma biopsy)
COLO792 = test system: COLO792
COLO800 = test system: COLO800
COLO829 = test system: COLO829
G361 = test system: G361
IPC-298 = test system: IPC-298
IST-MEL1 = test system: IST-MEL1
LB2518-MEL = test system: LB2518-MEL
LOXIMVI = test system: LOXIMVI
MEL-HO = test system: MEL-HO

| SMILES | cleaved PARP positive nuclei fraction (501Mel) [%] | cleaved PARP positive nuclei fraction (A101D) [%] | cleaved PARP positive nuclei fraction (A2058) [%] | cleaved PARP positive nuclei fraction (A375) [%] | cleaved PARP positive nuclei fraction (C32) [%] | cleaved PARP positive nuclei fraction (CBRC008) [%] | cleaved PARP positive nuclei fraction (CBRC014) [%] | cleaved PARP positive nuclei fraction (CBRC016) [%] | cleaved PARP positive nuclei fraction (CBRC017) [%] | cleaved PARP positive nuclei fraction (CBRC034) [%] | cleaved PARP positive nuclei fraction (COLO792) [%] | cleaved PARP positive nuclei fraction (COLO800) [%] | cleaved PARP positive nuclei fraction (COLO829) [%] | cleaved PARP positive nuclei fraction (G361) [%] | cleaved PARP positive nuclei fraction (IPC-298) [%] | cleaved PARP positive nuclei fraction (IST-MEL1) [%] | cleaved PARP positive nuclei fraction (LB2518-MEL) [%] | cleaved PARP positive nuclei fraction (LOXIMVI) [%] | cleaved PARP positive nuclei fraction (MEL-HO) [%] |
| --- | --- | --- | --- | --- | --- | --- | --- | --- | --- | --- | --- | --- | --- | --- | --- | --- | --- | --- | --- |
| CC[C@]1(O)C[C@H]2CN(CCc3c([nH]c4ccccc34)[C@@](C(=O)OC)(c3cc4c(cc3OC)N(C=O)[C@H]3[C@@](O)(C(=O)OC)[C@H](OC(C)=O)[C@]5(CC)C=CCN6CC[C@]43[C@@H]65)C2)C1 [vincristine] + Cc1cn(-c2cc(NC(=O)c3ccc(C)c(Nc4nccc(-c5cccnc5)n4)c3)cc(C(F)(F)F)c2)cn1 [nilotinib] (first compound 0.0001 µM, partner dose 0.2 µM) | 173 | 195 | 1360 | 330 | 96.5 | 395 | 116 | 264 | 124 | 67.5 | 34.4 | 84.8 | 56.7 | 115 | 44.3 | 70.6 | 232 | 248 | 167 |
| CCCCCCCCCCCCCCCCCCOP(=O)([O-])OC1CC[N+](C)(C)CC1 [Perifosine] + Cn1cnc2c(F)c(Nc3ccc(Br)cc3Cl)c(C(=O)NOCCO)cc21 [selumetinib] (first compound 0.4 µM, partner dose 0.015 µM) | 146 | 159 | 75.6 | 99.7 | 299 | 102 | 80.1 | 177 | 132 | 50.7 | 113 | 104 | 100 | 161 | 145 | 101 | 75.4 | 184 | 84.7 |
| CCCCCCCCCCCCCCCCCCOP(=O)([O-])OC1CC[N+](C)(C)CC1 [Perifosine] + CS(=O)(=O)c1ccc(C(=O)Nc2ccc(Cl)c(-c3ccccn3)c2)c(Cl)c1 [vismodegib] (first compound 0.4 µM, partner dose 1 µM) | 76.5 | 54.4 | 305 | 96.1 | 82 | 60.6 | 108 | 83.2 | 127 | 69.7 | 66 | 128 | 82.9 | 138 | 3490 | 91.2 | 64.7 | 131 | 27.3 |
| CCCCCCCCCCCCCCCCCCOP(=O)([O-])OC1CC[N+](C)(C)CC1 [Perifosine] + NC(=O)c1ccc(N(C(N)=O)c2c(F)cccc2F)nc1-c1ccc(F)cc1F [VX702] (first compound 0.4 µM, partner dose 0.4 µM) | 88.4 | 31.4 | 132 | 771 | 71.6 | 78.9 | 93.1 | 80.4 | 107 | 70.5 | 249 | 105 | 67.7 | 196 | 118 | 32 | 56.4 | 142 | 177 |
| Cc1cc(Nc2cc(N3CCN(C)CC3)nc(Sc3ccc(NC(=O)C4CC4)cc3)n2)n[nH]1 [Tozasertib] + Cc1nc(Nc2ncc(C(=O)Nc3c(C)cccc3Cl)s2)cc(N2CCN(CCO)CC2)n1 [dasatanib] (first compound 0.006 µM, partner dose 0.004 µM) | 91 | 188 | 458 | 158 | 87.1 | 146 | 109 | 124 | 93 | 48.6 | 113 | 159 | 159 | 161 | 143 | 207 | 204 | 132 | 107 |
| CC[C@]1(O)C[C@H]2CN(CCc3c([nH]c4ccccc34)[C@@](C(=O)OC)(c3cc4c(cc3OC)N(C=O)[C@H]3[C@@](O)(C(=O)OC)[C@H](OC(C)=O)[C@]5(CC)C=CCN6CC[C@]43[C@@H]65)C2)C1 [vincristine] + NC(=O)c1ccc(N(C(N)=O)c2c(F)cccc2F)nc1-c1ccc(F)cc1F [VX702] (first compound 0.0001 µM, partner dose 0.4 µM) | 50.5 | 194 | 1310 | 135 | 743 | 238 | 112 | 743 | 122 | 43.7 | 119 | 82.2 | 169 | 145 | 117 | 72.2 | 111 | 31.7 | 35.9 |
| CC[C@]1(O)C[C@H]2CN(CCc3c([nH]c4ccccc34)[C@@](C(=O)OC)(c3cc4c(cc3OC)N(C=O)[C@H]3[C@@](O)(C(=O)OC)[C@H](OC(C)=O)[C@]5(CC)C=CCN6CC[C@]43[C@@H]65)C2)C1 [vincristine] + Cn1nnc2c(C(N)=O)ncn2c1=O [temozolomide] (first compound 0.0001 µM, partner dose 2 µM) | 285 | 203 | 469 | 196 | 80.6 | 96.4 | 102 | 94.1 | 107 | 53.4 | 81 | 101 | 149 | 85.7 | 29.9 | 65.2 | 103 | 151 | 96.6 |
| O=C(/C=C/c1cccnc1)NCCCCC1CCN(C(=O)c2ccccc2)CC1 + Cc1nc(Nc2ncc(C(=O)Nc3c(C)cccc3Cl)s2)cc(N2CCN(CCO)CC2)n1 [dasatanib] (first compound 0.01 µM, partner dose 0.004 µM) | 134 | 88.1 | 124 | 118 | 164 | 3360 | 142 | 922 | 478 | 2580 | 285 | 553 | 231 | 3020 | 1100 | 199 | 96.7 | 232 | 280 |
| O=C(/C=C/c1cccnc1)NCCCCC1CCN(C(=O)c2ccccc2)CC1 + CO[C@H]1C[C@@H]2CC[C@@H](C)[C@@](O)(O2)C(=O)C(=O)N2CCCC[C@H]2C(=O)O[C@H]([C@H](C)C[C@@H]2CC[C@@H](OCCO)[C@H](OC)C2)CC(=O)[C@H](C)/C=C(\C)[C@@H](O)[C@@H](OC)C(=O)[C@H](C)C[C@H](C)/C=C/C=C/C=C/1C [everolimus] (first compound 0.01 µM, partner dose 0.02 µM) | 166 | 114 | 8.83 | 456 | 152 | 1680 | 139 | 23.3 | 213 | 2070 | 215 | 98.5 | 166 | 4040 | 394 | 101 | 130 | 89.8 | 140 |
| O=C(/C=C/c1cccnc1)NCCCCC1CCN(C(=O)c2ccccc2)CC1 + OCc1c[nH]c2ccccc12 [Indole-3-carbinol] (first compound 0.01 µM, partner dose 0.8 µM) | 104 | 58.5 | 179 | 140 | 162 | 2060 | 97.5 | 392 | 364 | 953 | 129 | 142 | 92.6 | 1550 | 260 | 75 | 97.9 | 94.3 | 284 |
| O=C(/C=C/c1cccnc1)NCCCCC1CCN(C(=O)c2ccccc2)CC1 + CC(=O)O[C@@]12CO[C@@H]1C[C@H](O)[C@@]1(C)C(=O)[C@H](O)C3=C(C)[C@@H](OC(=O)[C@H](O)[C@@H](NC(=O)OC(C)(C)C)c4ccccc4)C[C@@](O)([C@@H](OC(=O)c4ccccc4)[C@H]21)C3(C)C [Docetaxel] (first compound 0.01 µM, partner dose 0.0001 µM) | 283 | 123 | 4160 | 2130 | 161 | 2200 | 155 | 1360 | 668 | 1990 | 567 | 318 | 448 | 2240 | 550 | 256 | 289 | 105 | 464 |
| Cc1ccc(Nc2nccc(N(C)c3ccc4c(C)n(C)nc4c3)n2)cc1S(N)(=O)=O [Pazopanib] + C[C@@H](N)c1ccc(C(=O)Nc2ccnc3[nH]ccc23)cc1 [RKI983] (first compound 0.4 µM, partner dose 0.4 µM) | 53.3 | 98.1 | 123 | 108 | 93.5 | 163 | 99.1 | 59.9 | 108 | 60.9 | 92.5 | 41.6 | 137 | 174 | 64.5 | 243 | 46.8 | 243 | 47 |
| Cc1ccc(Nc2nccc(N(C)c3ccc4c(C)n(C)nc4c3)n2)cc1S(N)(=O)=O [Pazopanib] + CNC(=O)c1cc(Oc2ccc(NC(=O)Nc3ccc(Cl)c(C(F)(F)F)c3)cc2)ccn1 [sorafenib] (first compound 0.4 µM, partner dose 0.4 µM) | 88.7 | 145 | 123 | 119 | 233 | 169 | 103 | 685 | 244 | 127 | 36.6 | 144 | 76.7 | 35.2 | 57.3 | 94.5 | 120 | 69.8 | 82.5 |
| O=c1[nH]nc(Sc2ncc([N+](=O)[O-])s2)n1-c1ccc2c(c1)OCCO2 + Cn1cnc2c(F)c(Nc3ccc(Br)cc3Cl)c(C(=O)NOCCO)cc21 [selumetinib] (first compound 0.2 µM, partner dose 0.015 µM) | 238 | 107 | 99.5 | 219 | 83.9 | 137 | 77.4 | 75.8 | 90.8 | 96 | 51.5 | 89.2 | 99.9 | 166 | 108 | 55 | 145 | 65.7 | 127 |
| CC[C@]1(O)C[C@H]2CN(CCc3c([nH]c4ccccc34)[C@@](C(=O)OC)(c3cc4c(cc3OC)N(C=O)[C@H]3[C@@](O)(C(=O)OC)[C@H](OC(C)=O)[C@]5(CC)C=CCN6CC[C@]43[C@@H]65)C2)C1 [vincristine] + Cn1cnc2c(F)c(Nc3ccc(Br)cc3Cl)c(C(=O)NOCCO)cc21 [selumetinib] (first compound 0.0001 µM, partner dose 0.015 µM) | 414 | 125 | 270 | 131 | 99.8 | 209 | 91 | 67.6 | 176 | 157 | 86.7 | 119 | 101 | 70.4 | 158 | 133 | 259 | 113 | 107 |
| CC[C@]1(O)C[C@H]2CN(CCc3c([nH]c4ccccc34)[C@@](C(=O)OC)(c3cc4c(cc3OC)N(C=O)[C@H]3[C@@](O)(C(=O)OC)[C@H](OC(C)=O)[C@]5(CC)C=CCN6CC[C@]43[C@@H]65)C2)C1 [vincristine] + O=C(O)[C@@H]1[O][Sb](=[O])([O][Sb]2(=[O])[O][C@H]([C@H](O)CO)[C@H](O)[C@H](C(=O)O)[O]2)[O][C@H]([C@H](O)CO)[C@@H]1O [stibogluconate] (first compound 0.0001 µM, partner dose 2 µM) | 97.6 | 45.8 | 105 | 51.6 | 86.5 | 65.7 | 99.2 | 119 | 120 | 186 | 39.1 | 41.8 | 42.5 | 98.5 | 81 | 59.6 | 40.5 | 226 | 220 |
